In PMC6004054:
Numbering of substitutions follows the chain as printed. Numbers in names are those of the source. These are yes or no findings as the source states them, for the method shown. Binding seen in cells or lysates may run through a third protein. Some entries that bind do so weakly or less than the wild type. Sequences can lack the tags named with a protein. One block for each binder: values may come before it.

Biological target: T1, SLFN14(WT)-myc (human) (UniProt P0C7P3)
T1 sequence: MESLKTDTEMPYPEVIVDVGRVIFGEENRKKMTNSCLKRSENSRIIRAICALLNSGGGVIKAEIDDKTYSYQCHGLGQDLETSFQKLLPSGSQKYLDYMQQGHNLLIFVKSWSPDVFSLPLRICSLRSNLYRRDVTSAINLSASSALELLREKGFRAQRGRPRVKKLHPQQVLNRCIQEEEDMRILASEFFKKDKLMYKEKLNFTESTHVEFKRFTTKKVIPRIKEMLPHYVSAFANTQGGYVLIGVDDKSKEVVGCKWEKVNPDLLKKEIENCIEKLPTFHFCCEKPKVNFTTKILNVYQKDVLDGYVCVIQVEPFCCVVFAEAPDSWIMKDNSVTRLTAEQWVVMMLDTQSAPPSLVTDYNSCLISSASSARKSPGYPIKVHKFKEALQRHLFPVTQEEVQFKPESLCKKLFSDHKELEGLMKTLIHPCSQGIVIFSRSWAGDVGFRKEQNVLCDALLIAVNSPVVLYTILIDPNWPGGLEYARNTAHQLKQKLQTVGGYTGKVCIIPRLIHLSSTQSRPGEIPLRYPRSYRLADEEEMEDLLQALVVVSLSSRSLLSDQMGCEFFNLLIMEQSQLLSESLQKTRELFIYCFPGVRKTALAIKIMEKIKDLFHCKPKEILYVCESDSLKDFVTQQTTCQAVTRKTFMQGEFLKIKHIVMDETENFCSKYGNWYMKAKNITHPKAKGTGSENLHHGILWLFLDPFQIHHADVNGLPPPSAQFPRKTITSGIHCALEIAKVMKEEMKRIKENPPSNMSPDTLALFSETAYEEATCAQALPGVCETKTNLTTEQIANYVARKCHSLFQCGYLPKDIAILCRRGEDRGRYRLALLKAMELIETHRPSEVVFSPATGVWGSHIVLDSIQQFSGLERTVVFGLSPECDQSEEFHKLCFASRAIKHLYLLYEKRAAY
Experiment: co-IP; HEK293T cells coexpressing SLFN14(WT)-myc and SLFN14(WT/mut)-GFP for 48 h; lysates precleared, anti-myc antibody with Protein G Sepharose overnight at 4°C; IP lysates analysed by Western blot

binding: binds
B1: SLFN14(WT)-GFP (protein, UniProt P0C7P3 1-912)
chain: T1 sequence

binding: binds
B2: SLFN14(V220D)-GFP (protein, UniProt P0C7P3 1-912)
chain: T1 sequence with V220D

binding: binds
B3: SLFN14(K219N)-GFP (protein, UniProt P0C7P3 1-912)
chain: T1 sequence with K219N

binding: binds
B4: SLFN14(K218E)-GFP (protein, UniProt P0C7P3 1-912)
chain: T1 sequence with K218E
